# Measured values published in doi:10.1101/2024.11.20.624481.
# These are yes or no findings as the source states them, for the method shown. Binding seen in cells or lysates may run through a third protein. Binding can be weak; no strength is given.
# Molecular target: T1, Armadillo BTB Arabidopsis protein 1 (endogenous, plant extracts) (Arabidopsis thaliana (endogenous in plants)) (UniProt B7U179)
# T1 sequence: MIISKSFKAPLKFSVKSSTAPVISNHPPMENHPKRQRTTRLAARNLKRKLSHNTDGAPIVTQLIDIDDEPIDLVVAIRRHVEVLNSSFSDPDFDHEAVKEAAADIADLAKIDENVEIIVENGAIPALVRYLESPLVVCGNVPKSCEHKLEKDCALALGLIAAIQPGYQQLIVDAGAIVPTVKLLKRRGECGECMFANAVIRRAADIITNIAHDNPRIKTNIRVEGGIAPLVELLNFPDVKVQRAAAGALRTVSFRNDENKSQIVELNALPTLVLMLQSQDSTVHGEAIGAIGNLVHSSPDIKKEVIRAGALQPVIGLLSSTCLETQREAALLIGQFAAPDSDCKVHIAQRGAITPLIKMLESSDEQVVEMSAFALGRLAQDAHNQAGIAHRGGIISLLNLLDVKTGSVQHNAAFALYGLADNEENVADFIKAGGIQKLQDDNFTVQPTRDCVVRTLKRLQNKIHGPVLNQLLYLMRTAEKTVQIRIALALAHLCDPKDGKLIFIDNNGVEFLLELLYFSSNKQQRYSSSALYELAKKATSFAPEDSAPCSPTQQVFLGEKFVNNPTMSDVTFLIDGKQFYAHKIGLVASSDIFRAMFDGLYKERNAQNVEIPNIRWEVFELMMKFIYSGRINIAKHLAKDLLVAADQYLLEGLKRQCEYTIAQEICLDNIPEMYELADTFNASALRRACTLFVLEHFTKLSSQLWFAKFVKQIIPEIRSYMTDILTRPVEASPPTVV
# Experiment: co-IP
substance,measurement,value
AIP10-YFP C-terminal fusion protein (Arabidopsis thaliana),binding,binds
